For at least one compound, name, drawing or mass did not settle the structure.
Tested on: hippocampal LTP in healthy rats
Test: Hippocampal LTP in slices from healthy rats treated in vivo
Parameters: species or system rat
Settings: 2 mg/kg i.p. each day during 7 days (P21-P27)
Protocol: At P28-38, Sprague-Dawley rats were anesthetized with isoflurane, the forebrain was removed and placed in ice cold standard artificial cerebrospinal fluid (ACSF), consisting of (in mM): 124 NaCl, 5 KCl, 1.25 Na2HPO4, 2 MgSO4, 2 CaCl2), 26 NaHCO3, supplemented with 10 D-glucose, and bubbled with 95% O2 and 5% CO2. Hippocampal transverse slices were cut into 350 μm thick sections, using a vibratome (Leica VT1000S), and incubated in ACSF at room temperature for at least 1 h, before the transfer to the recording chamber. The ACSF used for perfusion was supplemented with picrotoxin (100 μM; Sigma-Aldrich), to block GABA-A receptors and therefore to facilitate the induction of NMDA receptors-dependent Long-Term Potentiation (LTP). […] Series resistance was continually monitored, and experiments were discarded if it changed by >20%.
Capillary glass pipettes filled with ACSF and connected to an Iso-Flex stimulus isolation unit (A.M.P.I.) were placed in stratum radiatum, to evoke excitatory postsynaptic potentials (EPSPs) in CA1 pyramidal neurons. […] LTP was induced by the theta burst pairing (TBP) protocol, which consisted of EPSPs paired with single back-propagating action potentials (b-APs), timed so that the b-AP (~15 ms delay) occurred at the peak of the EPSPs, as measured in the soma. […]

For CC/C=C\C/C=C\C/C=C\C/C=C\C/C=C\C/C=C\CCC(=O)NCCO [synaptamide, N-Docosahexaenoylethanolamine, reference compound], the “LTP magnitude (EPSP amplitude, % of baseline)” value was 211.9=15.14%.
